Results reported in paper PMC9378687.
Results are given in words; binding and its absence hold for the method and conditions named. In cells and extracts the contact can be indirect. Some binding calls cover weakened binding; strength is not graded here.

Chains of the proteins cited; added tags and fusions are not shown.
UniProt P19484: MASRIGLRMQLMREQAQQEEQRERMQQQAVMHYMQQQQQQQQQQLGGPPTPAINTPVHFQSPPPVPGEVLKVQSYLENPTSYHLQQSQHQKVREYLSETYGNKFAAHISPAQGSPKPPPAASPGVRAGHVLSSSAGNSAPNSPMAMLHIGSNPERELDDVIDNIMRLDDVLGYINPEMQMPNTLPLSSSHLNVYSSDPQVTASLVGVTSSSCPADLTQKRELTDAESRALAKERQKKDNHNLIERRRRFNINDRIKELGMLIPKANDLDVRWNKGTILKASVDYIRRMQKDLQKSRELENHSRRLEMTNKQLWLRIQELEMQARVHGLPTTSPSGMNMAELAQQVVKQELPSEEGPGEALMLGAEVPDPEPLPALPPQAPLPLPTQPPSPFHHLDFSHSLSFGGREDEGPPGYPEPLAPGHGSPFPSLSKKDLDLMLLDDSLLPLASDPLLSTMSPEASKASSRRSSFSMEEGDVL

Target: transcription factor EB (TFEB) (human (endogenous in MGC803)) (UniProt P19484)
Test: co-IP; whole-cell lysates of MGC803 cells (control, or overexpressing native or mutant HPA); Universal Magnetic Co-IP Kit, IP with anti-TFEB monoclonal antibody and protein-G beads; western blot for TFEB, phospho-TFEB (Ser211), HPA, 14-3-3

| Binder | binding |
| --- | --- |
| heparanase (HPA), wild type (enzyme, UniProt Q9Y251 36-543) QDVVDLDFFTQEPLHLVSPSFLSVTIDANLATDPRFLILLGSPKLRTLARGLSPAYLRFGGTKTDFLIFDPKKESTFEERSYWQSQVNQDICKYGSIPPDVEEKLRLEWPYQEQLLLREHYQKKFKNSTYSRSSVDVLYTFANCSGLDLIFGLNALLRTADLQWNSSNAQLLLDYCSSKGYNISWELGNEPNSFLKKADIFINGSQLGEDFIQLHKLLRKSTFKNAKLYGPDVGQPRRKTAKMLKSFLKAGGEVIDSVTWHHYYLNGRTATKEDFLNPDVLDIFISSVQKVFQVVESTRPGKKVWLGETSSAYGGGAPLLSDTFAAGFMWLDKLGLSARMGIEVVMRQVFFGAGNYHLVDENFDPLPDYWLSLLFKKLVGTKVLMASVQGSKRRKLRVYLHCTNTDNPRYKEGDLTLYAINLHNVTKYLRLPYPFSNKQVDKYLLRPLGPHGLLSKSVQLNGLTLKMVDDQTLPPLMEKPLRPGSSLGLPAFSYSFFVIRNAKVAACI | binds |
| heparanase (HPA) E225/343A double mutant (enzyme, UniProt Q9Y251 36-543) QDVVDLDFFTQEPLHLVSPSFLSVTIDANLATDPRFLILLGSPKLRTLARGLSPAYLRFGGTKTDFLIFDPKKESTFEERSYWQSQVNQDICKYGSIPPDVEEKLRLEWPYQEQLLLREHYQKKFKNSTYSRSSVDVLYTFANCSGLDLIFGLNALLRTADLQWNSSNAQLLLDYCSSKGYNISWELGNAPNSFLKKADIFINGSQLGEDFIQLHKLLRKSTFKNAKLYGPDVGQPRRKTAKMLKSFLKAGGEVIDSVTWHHYYLNGRTATKEDFLNPDVLDIFISSVQKVFQVVESTRPGKKVWLGATSSAYGGGAPLLSDTFAAGFMWLDKLGLSARMGIEVVMRQVFFGAGNYHLVDENFDPLPDYWLSLLFKKLVGTKVLMASVQGSKRRKLRVYLHCTNTDNPRYKEGDLTLYAINLHNVTKYLRLPYPFSNKQVDKYLLRPLGPHGLLSKSVQLNGLTLKMVDDQTLPPLMEKPLRPGSSLGLPAFSYSFFVIRNAKVAACI | binds |
